PubChem BioAssay AID1259280 | Sanger Institute | 2017
The whole screen tested 794 reagents; shown is an unselected part. 12 of them (1.5%) count as active. 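Calls cover knock-down without drug only; synergy scores stand apart, values above 0.15 being treated as synergy.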 Unmarked entries are inactive. Further read-outs or replicates are left out here. Reagent sequences are not shown. The record does not give: the amount of reagent, the time to read-out.

Aim: 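Kinome siRNA screen for partners that synergise with BYL719, cetuximab or trametinib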 (primary screen)
Cell system: human SNU407 colorectal cancer cells
Knock-down reagent: siRNA pool against human genes
Conditions: anchor drugs BYL719 at 1 µM, cetuximab at 5 µg/ml or trametinib at 10 nM, or DMSO vehicle alone; exposure time not given
Measurement: 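Viability per well scaled to a non-targeting pool and averaged over replicates, with a robust z-score from controls and a synergy score per anchor drug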
Scale: viability z-score, no drug: higher = more cells survive the knock-down
Rule for the call: 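a knock-down counts as essential when its robust viability z-score without drug is below -3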
Meaning of the calls: active = essential (knock-down alone kills cells); inactive = no change without drug

| gene knocked down | viability z-score, no drug |
| --- | --- |
| PKMYT1 (protein kinase, membrane associated tyrosine/threonine 1) | -0.341 |
| ALPK2 (alpha kinase 2) | 0.557 |
| MAP3K12 (mitogen-activated protein kinase kinase kinase 12) | -0.139 |
| NTN4 (netrin 4) | -0.41 |
| LATS2 (large tumor suppressor kinase 2) | 0.901 |
| MAST1 (microtubule associated serine/threonine kinase 1) | 0.901 |
| SCYL3 (SCY1 like pseudokinase 3) | -0.121 |
| NEK8 (NIMA related kinase 8) | -0.902 |
| RPS6KA5 (ribosomal protein S6 kinase A5) | 0.807 |
| DCLK3 (doublecortin like kinase 3) | 0.226 |
| CKMT1B (creatine kinase, mitochondrial 1B) | 0.0198 |
| GUCY2D (guanylate cyclase 2D, retinal) | -5.09 (active) |
| SHPK (sedoheptulokinase) | 0.901 |
| ROCK1 (Rho associated coiled-coil containing protein kinase 1) | 0.901 |
| ACVR2A (activin A receptor type 2A) | 0.859 |
| VRK2 (VRK serine/threonine kinase 2) | -0.221 |
| CRIM1 (cysteine rich transmembrane BMP regulator 1) | 0.256 |
| TWF2 (twinfilin actin binding protein 2) | 0.237 |
| MARK4 (microtubule affinity regulating kinase 4) | 0.901 |
| AKT3 (AKT serine/threonine kinase 3) | 0.419 |
| N4BP2 (NEDD4 binding protein 2) | 0.724 |
| PFKFB3 (6-phosphofructo-2-kinase/fructose-2,6-biphosphatase 3) | 0.353 |
| BMX (BMX non-receptor tyrosine kinase) | 0.901 |
| IRAK1 (interleukin 1 receptor associated kinase 1) | -0.945 |
| AXL (AXL receptor tyrosine kinase) | 0.191 |
| TYK2 (tyrosine kinase 2) | 0.901 |
| ITPKC (inositol-trisphosphate 3-kinase C) | 0.901 |
| SRPK3 (SRSF protein kinase 3) | 0.901 |
| ADPGK (ADP dependent glucokinase) | -0.362 |
| NADK (NAD kinase) | 0.901 |
| RPS6KA1 (ribosomal protein S6 kinase A1) | 0.901 |
| CILK1 (ciliogenesis associated kinase 1) | -0.558 |
| ATP23 | 0.311 |
| SBK1 (SH3 domain binding kinase 1) | -0.0222 |
| GK (glycerol kinase) | -0.0678 |
| MAPK10 (mitogen-activated protein kinase 10) | 0.516 |
| ACVR1C (activin A receptor type 1C) | 0.901 |
| MAP3K10 (mitogen-activated protein kinase kinase kinase 10) | 0.901 |
| TSSK3 (testis specific serine kinase 3) | 0.439 |
| CDK5 (cyclin dependent kinase 5) | 0.557 |
| MELK (maternal embryonic leucine zipper kinase) | 0.901 |
| PHKA2 (phosphorylase kinase regulatory subunit alpha 2) | -0.533 |
| FGR (FGR proto-oncogene, Src family tyrosine kinase) | 0.562 |
| NPR2 (natriuretic peptide receptor 2) | -0.217 |
| NEK11 (NIMA related kinase 11) | -0.0483 |
| PNCK (pregnancy up-regulated nonubiquitous CaM kinase) | 0.194 |
| DAPK2 (death associated protein kinase 2) | 0.901 |
| DTYMK (deoxythymidylate kinase) | 0.187 |
| EGFR (epidermal growth factor receptor) | -1.19 |
| PIKFYVE (phosphoinositide kinase, FYVE-type zinc finger containing) | 0.901 |
